This is an account of results in article PMC9948342.

Protein sequences, listed by entry. Tags and fused reporters are not part of them.
UniProt P07951: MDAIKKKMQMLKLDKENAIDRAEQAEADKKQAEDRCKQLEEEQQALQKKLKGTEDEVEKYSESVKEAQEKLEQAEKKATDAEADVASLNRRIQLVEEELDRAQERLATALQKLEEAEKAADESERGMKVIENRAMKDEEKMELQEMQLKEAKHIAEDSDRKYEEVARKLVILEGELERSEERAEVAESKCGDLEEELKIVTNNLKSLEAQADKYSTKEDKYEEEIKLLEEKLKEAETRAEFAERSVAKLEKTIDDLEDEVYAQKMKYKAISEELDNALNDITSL
UniProt Q9NR12: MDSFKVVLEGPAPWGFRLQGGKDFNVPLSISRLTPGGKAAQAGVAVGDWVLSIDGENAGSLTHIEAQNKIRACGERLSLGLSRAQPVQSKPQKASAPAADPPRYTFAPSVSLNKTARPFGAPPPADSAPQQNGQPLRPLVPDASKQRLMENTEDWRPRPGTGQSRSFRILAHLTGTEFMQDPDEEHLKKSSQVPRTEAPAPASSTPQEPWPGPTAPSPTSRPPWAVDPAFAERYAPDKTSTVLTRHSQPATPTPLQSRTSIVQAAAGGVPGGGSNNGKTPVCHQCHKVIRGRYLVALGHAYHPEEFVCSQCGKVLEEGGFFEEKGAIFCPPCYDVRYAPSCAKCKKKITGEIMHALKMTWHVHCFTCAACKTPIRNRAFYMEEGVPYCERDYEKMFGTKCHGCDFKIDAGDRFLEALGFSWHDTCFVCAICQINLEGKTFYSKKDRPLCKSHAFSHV

The assay deals with Flag-TPM2 (human) (UniProt P07951). Put plainly: affinity purification with mass spectrometry; Flag-TPM2 transfected into HEK293T; whole cell lysate in IP lysis buffer immunoprecipitated with Flag magnetic beads or IgG control beads at 4 °C overnight; eluate analysed by MS.

Results are given in words; binding and its absence hold for the method and conditions named. In cells and extracts the contact can be indirect. A yes stands for co-enrichment or nearness to the bait. Other partners may have been found.

As to PDLIM7 (from UniProt Q9NR12 1-457), the binding result was “binds”.
